Test results reported in patent US9023889B2, “Use of ascorbic acid derivatives for the functionalization of matrices” (Merck Patent GmbH, priority 2006, dated 2015).

System: pig skin
Assay: Evidence of bonding to pig skin
Details: for abs (~355 nm), 100% comparative value: direct measurement without application to pig skin; for abs (~355 nm) of residue: pig skin 24 h, isopropanol extract
Protocol: • 2% solution of DHAB in Arlasolve DMI sample (A) and Pelemol BIP sample (B) • formulation containing 1% of DHAB sample (C) [=54-07-5-A, from Example V] • 2% solution of DHHB in Arlasolve DMI sample (D) and isopropyl myristate sample (E) formulations containing 0.84% of DHHB sample (F) [=54-07-5-B from Example V] and 0.84% of DHHB+0.37% of vitamin C sample (G) [=54-07-5-C from Example V]. • pig skin is cut to 2.5×7.5 cm and placed on Plexiglas specimen slides. Procedure:
50 µl of each of samples (A) to (G) are dripped onto the specimen slides with pig skin, spread using a plastic spatula, and the specimen slides are stored in a desiccator [87% atmospheric humidity through sat. KCl solution] at room temperature for 24 h. The specimen slides are then rinsed with 50 ml of isopropanol into volumetric flasks, treated in an ultrasound bath for 5 min, clear-filtered via syringe filters (cloudiness due to detached skin constituents and measured by UV spectrometer (400-250 nm; UVmax˜355 nm) (residue 1 to 7). The 100% comparative value used are 50 ml isopropanol solutions of in each case 50 µl of samples (A) to (G), which are likewise measured by UV spectrometer.

| Compound | abs (~355 nm), 100% comparative value (1% in W/O 54-07-5-A) | abs (~355 nm) of residue (1% in W/O 54-07-5-A) | abs (~355 nm), 100% comparative value (2% in Arlasolve DMI) | abs (~355 nm) of residue (2% in Arlasolve DMI) | abs (~355 nm), 100% comparative value (2% in Pelemol BIP) | abs (~355 nm) of residue (2% in Pelemol BIP) | abs (~355 nm), 100% comparative value (0.84% in W/O 54-07-5-B) | abs (~355 nm) of residue (0.84% in W/O 54-07-5-B) | abs (~355 nm), 100% comparative value (2% in isopropyl myristate) | abs (~355 nm) of residue (2% in isopropyl myristate) |
| --- | --- | --- | --- | --- | --- | --- | --- | --- | --- | --- |
| CCN(CC)c1ccc(C(=O)c2ccccc2C(=O)OC[C@@H](O)[C@H]2OC(=O)C(O)=C2O)c(O)c1 [DHAB, (R)-2-((R)-3,4-dihydroxy-5-oxo-2,5-dihydrofuran-2-yl)-2-hydroxyethyl 2-(4-diethylamino-2-hydroxybenzoyl)benzoate] | 0.459 | 0.042 | 1.501 | 0.047 | 1.375 | 0.152 |  |  |  |  |
| CCCCCCOC(=O)c1ccccc1C(=O)c1ccc(N(CC)CC)cc1O [DHHB, hexyl 2-(4-diethylamino-2-hydroxybenzoyl)benzoate] |  |  | 2.023 | 2.013 |  |  | 0.730 | 0.691 | 1.504 | 1.477 |
